From publication PMC11765155
Positions count from the first letter of the chain named. Results are given in words; binding and its absence hold for the method and conditions named. For some of these results: In cells and extracts the contact can be indirect. Some binding calls cover weakened binding; strength is not graded here. Sequences can lack the tags named with a protein. Blank lines part the entries; values can stand above or below the binder they belong to.

Columns and labels:
[1] = target: T1, C-terminal 3xmyc-tagged Hrr25 (Hrr25-myc) (S. cerevisiae) (UniProt P29295); assay: co-IP; yeast lysates in IP buffer (50 mM Tris-HCl pH 7.6, 100 mM NaCl, 0.1% Triton X-100); myc-tagged Hrr25 precipitated with anti-c-myc 9E10 and protein G-Sepharose at 4 °C; Pin4-HA detected by anti-HA immunoblot
T1 sequence: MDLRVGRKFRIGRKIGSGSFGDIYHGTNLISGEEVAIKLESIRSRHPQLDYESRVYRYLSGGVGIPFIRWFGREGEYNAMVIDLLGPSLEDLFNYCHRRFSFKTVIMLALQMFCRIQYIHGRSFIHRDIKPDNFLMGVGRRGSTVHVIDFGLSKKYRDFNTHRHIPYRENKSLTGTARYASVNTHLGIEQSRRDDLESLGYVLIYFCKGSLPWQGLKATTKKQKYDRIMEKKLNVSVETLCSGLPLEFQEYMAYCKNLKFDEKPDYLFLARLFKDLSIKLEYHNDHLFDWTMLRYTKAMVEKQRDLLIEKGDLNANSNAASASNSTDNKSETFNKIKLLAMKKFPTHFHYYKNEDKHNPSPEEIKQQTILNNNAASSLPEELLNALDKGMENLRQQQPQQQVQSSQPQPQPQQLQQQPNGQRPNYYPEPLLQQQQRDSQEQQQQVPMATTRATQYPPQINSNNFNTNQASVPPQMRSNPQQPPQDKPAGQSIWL

[2] = target: T2, GBD-Hrr25 (Gal4 DNA-binding domain fused to Hrr25) (S. cerevisiae) (UniProt P29295); assay: two-hybrid; GBD fusions in AH109 mated with GAD fusions in Y187; diploids on CSM with histidine (ADE2, colour), without histidine, or without histidine plus 1 mM 3-AT (HIS3)
T2 sequence: T1 sequence

[3] = target: T3, GBD-Hrr25(K38A) (Gal4 DNA-binding domain fused to a kinase-dead mutant of Hrr25) (S. cerevisiae) (UniProt P29295); assay: as above
T3 sequence: T1 sequence with K38A

[4] = target: T4, GBD-Hrr25(N) (Gal4 DNA-binding domain fused to the N-terminal kinase domain of Hrr25) (S. cerevisiae) (UniProt P29295); assay: as above
T4 sequence: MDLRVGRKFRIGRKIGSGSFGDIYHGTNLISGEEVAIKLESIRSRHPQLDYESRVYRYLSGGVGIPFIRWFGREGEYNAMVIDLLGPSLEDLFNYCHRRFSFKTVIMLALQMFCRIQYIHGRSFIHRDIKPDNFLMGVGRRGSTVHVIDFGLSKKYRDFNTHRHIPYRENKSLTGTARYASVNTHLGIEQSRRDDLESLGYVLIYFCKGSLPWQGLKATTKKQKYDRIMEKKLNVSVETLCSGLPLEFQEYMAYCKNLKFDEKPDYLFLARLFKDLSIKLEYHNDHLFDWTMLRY

- binding [1]: binds
B1: 3xHA-tagged Pin4 (Pin4-HA) (protein, UniProt P34217 1-668)
chain: METSSFENAPPAAINDAQDNNINTETNDQETNQQSIETRDAIDKENGVQTETGENSAKNAEQNVSSTNLNNAPTNGALDDDVIPNAIVIKNIPFAIKKEQLLDIIEEMDLPLPYAFNYHFDNGIFRGLAFANFTTPEETTQVITSLNGKEISGRKLKVEYKKMLPQAERERIEREKREKRGQLEEQHRSSSNLSLDSLSKMSGSGNNNTSNNQLFSTLMNGINANSMMNSPMNNTINNNSSNNNNSGNIILNQPSLSAQHTSSSLYQTNVNNQAQMSTERFYAPLPSTSTLPLPPQQLDFNDPDTLEIYSQLLLFKDREKYYYELAYPMGISASHKRIINVLCSYLGLVEVYDPRFIIIRRKILDHANLQSHLQQQGQMTSAHPLQPNSTGGSMNRSQSYTSLLQAHAAAAANSISNQAVNNSSNSNTINSNNGNGNNVIINNNSASSTPKISSQGQFSMQPTLTSPKMNIHHSSQYNSADQPQQPQPQTQQNVQSAAQQQQSFLRQQATLTPSSRIPSGYSANHYQINSVNPLLRNSQISPPNSQIPINSQTLSQAQPPAQSQTQQRVPVAYQNASLSSQQLYNLNGPSSANSQSQLLPQHTNGSVHSNFSYQSYHDESMLSAHNLNSADLIYKSLSHSGLDDGLEQGLNRSLSGLDLQNQNKKNLW
modifications: multi-phosphorylated in cells (sites not given)

- binding [2]: binds
- binding [3]: binds
- binding [4]: no binding
B2: GAD-Pin4 (Gal4 activation domain fused to Pin4) (protein, UniProt P34217 1-668)
chain: B1 chain
